Experimental data as given in the supplement of paper PMC10849652.
This is one part of the list.

Amino acid sequences for entries named in this document (tags omitted). A change or cut given only in a name is not applied to a line headed by its entry.
UniProt Q99442: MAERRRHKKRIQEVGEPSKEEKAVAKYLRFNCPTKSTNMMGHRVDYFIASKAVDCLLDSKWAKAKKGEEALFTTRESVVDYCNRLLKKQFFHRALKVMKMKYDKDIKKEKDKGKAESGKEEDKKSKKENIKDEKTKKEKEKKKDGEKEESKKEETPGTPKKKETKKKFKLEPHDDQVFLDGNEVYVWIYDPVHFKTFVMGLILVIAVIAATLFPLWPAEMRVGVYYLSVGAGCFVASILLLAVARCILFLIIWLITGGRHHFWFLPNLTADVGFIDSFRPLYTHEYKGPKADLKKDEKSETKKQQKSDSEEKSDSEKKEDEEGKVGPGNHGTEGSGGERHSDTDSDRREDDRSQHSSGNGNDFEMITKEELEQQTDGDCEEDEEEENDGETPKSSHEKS
UniProt Q9Y6U3: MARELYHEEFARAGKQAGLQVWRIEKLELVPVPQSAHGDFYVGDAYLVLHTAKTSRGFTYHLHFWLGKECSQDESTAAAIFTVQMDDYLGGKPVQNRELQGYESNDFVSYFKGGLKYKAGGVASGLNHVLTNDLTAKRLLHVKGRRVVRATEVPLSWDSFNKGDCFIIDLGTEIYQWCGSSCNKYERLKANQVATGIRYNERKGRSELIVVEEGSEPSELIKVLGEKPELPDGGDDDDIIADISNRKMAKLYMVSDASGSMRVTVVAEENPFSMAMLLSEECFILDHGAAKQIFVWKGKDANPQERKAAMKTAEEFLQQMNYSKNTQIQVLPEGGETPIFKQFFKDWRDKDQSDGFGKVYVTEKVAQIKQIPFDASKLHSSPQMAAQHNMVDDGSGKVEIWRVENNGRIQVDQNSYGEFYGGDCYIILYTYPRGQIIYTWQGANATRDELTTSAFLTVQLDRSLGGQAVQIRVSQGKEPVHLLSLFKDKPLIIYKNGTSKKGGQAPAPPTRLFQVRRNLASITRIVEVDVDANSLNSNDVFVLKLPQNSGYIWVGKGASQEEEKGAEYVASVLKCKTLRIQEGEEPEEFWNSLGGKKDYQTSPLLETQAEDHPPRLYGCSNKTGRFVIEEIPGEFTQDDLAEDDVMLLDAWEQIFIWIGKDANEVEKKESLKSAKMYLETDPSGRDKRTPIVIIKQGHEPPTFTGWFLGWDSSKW
UniProt O15027: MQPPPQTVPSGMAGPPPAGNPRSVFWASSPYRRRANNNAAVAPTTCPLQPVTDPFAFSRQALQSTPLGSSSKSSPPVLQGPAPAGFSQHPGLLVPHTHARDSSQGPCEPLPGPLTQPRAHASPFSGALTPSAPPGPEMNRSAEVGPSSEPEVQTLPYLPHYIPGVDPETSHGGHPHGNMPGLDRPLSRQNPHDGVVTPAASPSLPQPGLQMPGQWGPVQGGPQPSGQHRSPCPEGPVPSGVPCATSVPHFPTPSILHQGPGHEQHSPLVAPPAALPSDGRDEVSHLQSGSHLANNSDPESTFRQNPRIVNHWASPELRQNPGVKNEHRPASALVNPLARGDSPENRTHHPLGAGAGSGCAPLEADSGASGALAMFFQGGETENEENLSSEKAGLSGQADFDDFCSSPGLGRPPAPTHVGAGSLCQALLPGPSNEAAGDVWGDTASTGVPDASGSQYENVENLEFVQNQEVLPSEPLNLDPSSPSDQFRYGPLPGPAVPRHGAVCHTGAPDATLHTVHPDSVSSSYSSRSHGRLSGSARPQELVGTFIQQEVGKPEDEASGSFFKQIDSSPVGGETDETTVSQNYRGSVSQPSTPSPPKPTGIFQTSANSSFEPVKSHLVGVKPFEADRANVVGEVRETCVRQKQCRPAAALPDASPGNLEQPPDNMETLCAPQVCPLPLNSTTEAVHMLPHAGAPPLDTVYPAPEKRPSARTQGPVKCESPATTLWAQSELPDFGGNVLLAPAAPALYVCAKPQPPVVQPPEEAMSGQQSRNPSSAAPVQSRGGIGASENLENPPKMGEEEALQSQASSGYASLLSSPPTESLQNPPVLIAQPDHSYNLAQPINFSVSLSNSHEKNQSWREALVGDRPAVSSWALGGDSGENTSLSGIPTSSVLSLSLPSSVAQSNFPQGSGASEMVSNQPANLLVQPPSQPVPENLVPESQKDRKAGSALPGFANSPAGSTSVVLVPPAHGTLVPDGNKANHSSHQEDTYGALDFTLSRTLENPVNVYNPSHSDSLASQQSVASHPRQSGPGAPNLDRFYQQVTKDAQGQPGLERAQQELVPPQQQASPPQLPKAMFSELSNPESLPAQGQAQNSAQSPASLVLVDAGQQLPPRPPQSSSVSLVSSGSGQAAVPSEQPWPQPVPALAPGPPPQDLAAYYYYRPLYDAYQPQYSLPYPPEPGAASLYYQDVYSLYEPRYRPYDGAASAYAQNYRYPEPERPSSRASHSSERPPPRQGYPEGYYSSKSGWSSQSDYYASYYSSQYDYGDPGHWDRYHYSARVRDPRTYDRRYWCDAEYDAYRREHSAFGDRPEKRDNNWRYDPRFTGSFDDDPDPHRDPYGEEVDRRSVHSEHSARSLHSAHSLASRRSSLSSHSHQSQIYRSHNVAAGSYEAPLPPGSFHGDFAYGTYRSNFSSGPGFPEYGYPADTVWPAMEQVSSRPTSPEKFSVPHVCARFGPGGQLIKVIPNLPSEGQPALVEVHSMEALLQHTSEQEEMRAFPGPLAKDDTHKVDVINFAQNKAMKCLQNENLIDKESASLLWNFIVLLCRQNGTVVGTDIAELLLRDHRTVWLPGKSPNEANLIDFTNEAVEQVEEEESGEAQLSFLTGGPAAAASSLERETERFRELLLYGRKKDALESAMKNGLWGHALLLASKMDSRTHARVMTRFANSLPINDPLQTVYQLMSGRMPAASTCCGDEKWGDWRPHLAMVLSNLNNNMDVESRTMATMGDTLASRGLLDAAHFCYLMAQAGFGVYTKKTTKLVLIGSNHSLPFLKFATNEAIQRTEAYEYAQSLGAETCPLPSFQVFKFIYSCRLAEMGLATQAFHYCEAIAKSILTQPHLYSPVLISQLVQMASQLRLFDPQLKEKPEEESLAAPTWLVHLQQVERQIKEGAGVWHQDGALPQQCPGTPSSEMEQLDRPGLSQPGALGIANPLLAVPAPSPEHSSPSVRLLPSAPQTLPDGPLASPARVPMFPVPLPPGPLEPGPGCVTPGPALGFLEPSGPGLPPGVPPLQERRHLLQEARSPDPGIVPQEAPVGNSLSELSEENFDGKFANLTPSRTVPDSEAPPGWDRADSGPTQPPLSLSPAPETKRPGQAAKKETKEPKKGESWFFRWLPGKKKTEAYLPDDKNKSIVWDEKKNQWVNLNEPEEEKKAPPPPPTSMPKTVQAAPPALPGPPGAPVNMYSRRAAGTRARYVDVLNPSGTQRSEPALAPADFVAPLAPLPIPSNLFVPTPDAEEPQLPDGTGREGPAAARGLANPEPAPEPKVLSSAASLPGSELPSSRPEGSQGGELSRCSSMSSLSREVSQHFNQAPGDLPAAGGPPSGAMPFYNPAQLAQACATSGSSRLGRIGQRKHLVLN
UniProt Q96BU1: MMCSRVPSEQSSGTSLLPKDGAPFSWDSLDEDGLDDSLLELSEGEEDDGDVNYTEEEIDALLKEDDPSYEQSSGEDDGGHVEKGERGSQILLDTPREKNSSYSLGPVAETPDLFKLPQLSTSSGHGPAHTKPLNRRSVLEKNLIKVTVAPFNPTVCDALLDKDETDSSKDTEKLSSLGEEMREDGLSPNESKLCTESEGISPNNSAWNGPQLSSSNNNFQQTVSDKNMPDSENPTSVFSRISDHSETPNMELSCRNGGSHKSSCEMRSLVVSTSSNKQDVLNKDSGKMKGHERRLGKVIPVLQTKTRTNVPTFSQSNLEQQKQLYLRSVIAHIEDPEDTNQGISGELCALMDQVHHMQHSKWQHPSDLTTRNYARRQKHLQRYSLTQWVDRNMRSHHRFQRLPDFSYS
UniProt Q9UGP8: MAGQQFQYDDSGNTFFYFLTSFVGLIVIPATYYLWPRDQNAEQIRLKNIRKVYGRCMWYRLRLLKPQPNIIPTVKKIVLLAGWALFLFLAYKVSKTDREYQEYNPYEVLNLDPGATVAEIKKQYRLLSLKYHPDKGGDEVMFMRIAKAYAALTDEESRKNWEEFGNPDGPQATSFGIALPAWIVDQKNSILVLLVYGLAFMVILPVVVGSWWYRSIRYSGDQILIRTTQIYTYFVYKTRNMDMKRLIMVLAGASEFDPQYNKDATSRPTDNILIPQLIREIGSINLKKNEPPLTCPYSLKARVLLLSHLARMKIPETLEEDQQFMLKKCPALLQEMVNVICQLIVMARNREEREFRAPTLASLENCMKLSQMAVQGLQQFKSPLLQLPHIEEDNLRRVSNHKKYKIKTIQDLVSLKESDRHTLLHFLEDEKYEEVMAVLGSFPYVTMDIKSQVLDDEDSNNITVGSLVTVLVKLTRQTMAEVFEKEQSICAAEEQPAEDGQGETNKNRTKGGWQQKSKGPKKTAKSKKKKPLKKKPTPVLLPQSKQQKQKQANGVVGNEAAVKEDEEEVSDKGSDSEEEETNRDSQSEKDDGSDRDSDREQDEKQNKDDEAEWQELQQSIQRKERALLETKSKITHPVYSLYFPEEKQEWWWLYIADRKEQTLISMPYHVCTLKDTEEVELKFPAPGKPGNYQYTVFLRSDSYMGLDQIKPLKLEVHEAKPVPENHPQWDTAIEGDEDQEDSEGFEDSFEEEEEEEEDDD
UniProt Q99611, whole entry, looked up: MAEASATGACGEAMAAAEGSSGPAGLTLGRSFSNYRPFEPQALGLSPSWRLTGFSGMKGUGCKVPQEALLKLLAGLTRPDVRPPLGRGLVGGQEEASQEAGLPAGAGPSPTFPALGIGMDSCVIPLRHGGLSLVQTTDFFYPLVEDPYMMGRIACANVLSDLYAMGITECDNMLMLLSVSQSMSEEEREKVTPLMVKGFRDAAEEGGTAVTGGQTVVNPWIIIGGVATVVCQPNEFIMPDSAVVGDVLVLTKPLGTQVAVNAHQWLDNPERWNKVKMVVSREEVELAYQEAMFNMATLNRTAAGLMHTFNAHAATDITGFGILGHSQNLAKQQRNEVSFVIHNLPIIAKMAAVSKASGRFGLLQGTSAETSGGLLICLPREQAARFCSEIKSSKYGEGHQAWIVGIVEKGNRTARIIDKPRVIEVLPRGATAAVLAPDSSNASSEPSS
UniProt Q8NBX0: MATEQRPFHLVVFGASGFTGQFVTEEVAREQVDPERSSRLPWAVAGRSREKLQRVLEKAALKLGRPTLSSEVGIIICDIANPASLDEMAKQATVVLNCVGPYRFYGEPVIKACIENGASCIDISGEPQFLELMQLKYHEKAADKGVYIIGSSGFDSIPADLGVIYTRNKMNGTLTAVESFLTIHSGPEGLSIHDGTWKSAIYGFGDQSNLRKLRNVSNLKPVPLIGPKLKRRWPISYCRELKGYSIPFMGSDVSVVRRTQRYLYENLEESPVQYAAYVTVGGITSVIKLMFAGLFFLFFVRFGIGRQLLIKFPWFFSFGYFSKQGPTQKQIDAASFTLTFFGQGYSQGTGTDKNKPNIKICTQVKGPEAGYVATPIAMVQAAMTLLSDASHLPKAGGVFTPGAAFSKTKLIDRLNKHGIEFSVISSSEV
UniProt P21912: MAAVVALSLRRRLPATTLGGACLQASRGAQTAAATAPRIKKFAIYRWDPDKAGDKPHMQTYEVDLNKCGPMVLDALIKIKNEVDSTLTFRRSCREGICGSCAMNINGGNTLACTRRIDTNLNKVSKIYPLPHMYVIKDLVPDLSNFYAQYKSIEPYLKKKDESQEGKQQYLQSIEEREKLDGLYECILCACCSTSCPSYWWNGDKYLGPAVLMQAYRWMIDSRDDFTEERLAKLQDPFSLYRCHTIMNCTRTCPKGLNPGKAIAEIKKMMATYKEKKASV
UniProt Q15436: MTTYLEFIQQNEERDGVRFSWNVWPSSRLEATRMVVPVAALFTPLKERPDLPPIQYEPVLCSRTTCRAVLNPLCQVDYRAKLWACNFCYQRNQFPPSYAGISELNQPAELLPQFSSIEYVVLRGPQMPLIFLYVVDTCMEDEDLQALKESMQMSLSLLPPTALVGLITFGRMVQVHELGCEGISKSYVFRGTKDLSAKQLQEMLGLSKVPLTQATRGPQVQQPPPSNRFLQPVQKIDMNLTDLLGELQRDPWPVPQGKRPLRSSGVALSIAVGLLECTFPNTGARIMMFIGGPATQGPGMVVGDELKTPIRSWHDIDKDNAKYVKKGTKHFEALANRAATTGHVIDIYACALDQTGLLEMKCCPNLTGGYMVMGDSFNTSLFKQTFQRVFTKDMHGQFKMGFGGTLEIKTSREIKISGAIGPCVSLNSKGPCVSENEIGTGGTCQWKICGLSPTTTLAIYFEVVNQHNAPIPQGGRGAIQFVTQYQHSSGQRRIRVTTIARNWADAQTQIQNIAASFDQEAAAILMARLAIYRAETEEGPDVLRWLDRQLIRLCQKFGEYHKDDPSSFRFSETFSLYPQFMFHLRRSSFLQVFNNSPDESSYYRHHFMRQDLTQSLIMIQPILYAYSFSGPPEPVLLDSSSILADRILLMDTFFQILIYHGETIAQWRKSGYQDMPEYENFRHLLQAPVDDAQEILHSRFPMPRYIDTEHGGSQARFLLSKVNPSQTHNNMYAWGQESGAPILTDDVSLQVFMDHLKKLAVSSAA

How the values were obtained:
Assay in all cases: log2 fold change, soluble protein after heating vs DMSO (PISA); higher = thermal stabilisation; K562 lysate, 10 uM; active = over 0.2 and 3.5 SD of the protein, either way, in both replicates (recomputed)
vemurafenib = compound: CCCS(=O)(=O)Nc1ccc(F)c(C(=O)c2c[nH]c3ncc(-c4ccc(Cl)cc4)cc23)c1F [vemurafenib]
Outline: (§1)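 A 30 min treatment with 10 μM compound was applied to crude K562 extract at 1 mg/mL protein in PBS pH 7.4 with 1 mM MgCl2. Heating for 3 min spanned 48°C-58°C, after which aliquots were pooled, adjusted to 0.5% NP-40 at 4°C and spun at 21,000xg for 90 min. TMTpro 16plex LC-MS/MS of the supernatant, with channel sums equalised, gave values recorded as log-two fold change in thermal stability against solvent controls, from duplicates.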

[1] = compound: CCCS(=O)(=O)Nc1ccc(F)c(C(=O)c2c[nH]c3ncc(Cl)cc23)c1F
Outline: as §1

barasertib = compound: CCN(CCCOc1ccc2c(Nc3cc(CC(=O)Nc4cccc(F)c4)[nH]n3)ncnc2c1)CCOP(=O)(O)O [barasertib]
Outline: as §1

[2] = compound: CC[C@@H]1C(=O)N(C)c2cnc(Nc3ccc(C(=O)NC4CCN(C)CC4)cc3OC)nc2N1C1CCCC1
Outline: as §1

volasertib = compound: CC[C@@H]1C(=O)N(C)c2cnc(Nc3ccc(C(=O)N[C@H]4CC[C@H](N5CCN(CC6CC6)CC5)CC4)cc3OC)nc2N1C(C)C [volasertib]
Outline: as §1

[3] = compound: CCn1c(C(=O)N(C2CC2)C2CC2)cc2c3c(ncn3C)c(Nc3cc(C)n(C)n3)nc21
Outline: as §1

[4] = compound: CCn1cc(-c2ccnc3[nH]c(-c4cccc(CN(C)C)c4)cc23)c(-c2ccc(NC(=O)N(C)C)cc2)n1
Outline: as §1

[5] = compound: CN1CCC(CNc2ccc3ncc(-c4cccc(OC(F)(F)F)c4)n3n2)CC1
Outline: as §1

saracatinib = compound: CN1CCN(CCOc2cc(OC3CCOCC3)c3c(Nc4c(Cl)ccc5c4OCO5)ncnc3c2)CC1 [saracatinib]
Outline: as §1

sotrastaurin = compound: CN1CCN(c2nc(C3=C(c4c[nH]c5ccccc45)C(=O)NC3=O)c3ccccc3n2)CC1 [sotrastaurin]
Outline: as §1

alvocidib = compound: CN1CC[C@H](c2c(O)cc(O)c3c(=O)cc(-c4ccccc4Cl)oc23)[C@H](O)C1 [alvocidib]
Outline: as §1

Tubastatin A = compound: CN1CCc2c(c3ccccc3n2Cc2ccc(C(=O)NO)cc2)C1 [Tubastatin A]
Outline: as §1

[6] = compound: CNC(=O)C1=CC=CC=C1NC2=NC(=NC=C2Cl)NC3=C(C=C(C=C3)N4CCOCC4)OC
Outline: as §1

defactinib = compound: CNC(=O)c1ccc(Nc2ncc(C(F)(F)F)c(NCc3nccnc3N(C)S(C)(=O)=O)n2)cc1 [defactinib]
Outline: as §1

[7] = compound: CNc1nc(-c2ccc3c(N)n[nH]c3c2)cc(N2C[C@@H](C(=O)NC3CCCCC3)CC[C@H]2C)n1
Outline: as §1

encorafenib = compound: COC(=O)N[C@@H](C)CNc1nccc(-c2cn(C(C)C)nc2-c2cc(Cl)cc(NS(C)(=O)=O)c2F)n1 [encorafenib]
Outline: as §1

[8] = compound: COC(=O)[C@H](CCSC)NC(=O)C1=C(C=C(C=C1)NC[C@H](CS)N)C2=CC=CC=C2
Outline: as §1

alisertib = compound: COc1cc(Nc2ncc3c(n2)-c2ccc(Cl)cc2C(c2c(F)cccc2OC)=NC3)ccc1C(=O)O [alisertib]
Outline: as §1

[9] = compound: COc1cc2nc(-c3cc(F)ccc3O)nc(N[C@@H]3CNC[C@H]3C(C)(C)O)c2cc1OC
Outline: as §1

gefitinib = compound: COc1cc2ncnc(Nc3ccc(F)c(Cl)c3)c2cc1OCCCN1CCOCC1 [gefitinib]
Outline: as §1

Target | log2 fold change (vemurafenib) | log2 fold change [1] | log2 fold change (barasertib) | log2 fold change [2] | log2 fold change (volasertib) | log2 fold change [3] | log2 fold change [4] | log2 fold change [5] | log2 fold change (saracatinib) | log2 fold change (sotrastaurin) | log2 fold change (alvocidib) | log2 fold change (Tubastatin A) | log2 fold change [6] | log2 fold change (defactinib) | log2 fold change [7] | log2 fold change (encorafenib) | log2 fold change [8] | log2 fold change (alisertib) | log2 fold change [9] | log2 fold change (gefitinib)
SEC62 (UniProt Q99442) | inactive: -0.024 | inactive: 0.039 | inactive: 0.027 | inactive: 0.017 | inactive: 0.011 | inactive: 0 | active: 0.373 | inactive: -0.12 | inactive: -0.011 | inactive: -0.04 | inactive: 0.046 | inactive: 0.07 | inactive: 0.019 | inactive: 0.02 | inactive: 0.045 | inactive: -0.012 | inactive: -0.084 | inactive: -0.003 | inactive: -0.028 | inactive: 0.004
SCIN (UniProt Q9Y6U3) | inactive: -0.011 | inactive: 0.018 | inactive: 0.021 | inactive: 0.02 | inactive: -0.027 | inactive: 0.026 | inactive: -0.001 | inactive: -0.019 | inactive: -0.003 | inactive: -0.013 | inactive: 0.012 | inactive: 0.032 | inactive: -0.001 | inactive: -0.003 | inactive: 0.022 | inactive: -0.01 | inactive: 0.054 | inactive: -0.022 | inactive: 0.007 | inactive: -0.002
SCML2 (UniProt Q9UQR0) | inactive: 0.033 | inactive: -0.006 | inactive: -0.028 | inactive: -0.007 | inactive: -0.018 | inactive: 0.02 | inactive: 0.033 | inactive: 0.032 | inactive: 0.064 | inactive: -0.067 | inactive: 0.006 | inactive: -0.204 | inactive: 0.031 | inactive: -0.03 | inactive: -0.035 | inactive: 0.01 | inactive: 0.18 | inactive: 0.025 | inactive: -0.016 | inactive: -0.053
SEC23IP (UniProt Q9Y6Y8) | inactive: -0.036 | inactive: 0.017 | inactive: -0.007 | inactive: 0.008 | inactive: -0.01 | inactive: 0.002 | inactive: 0.023 | inactive: -0.03 | inactive: 0.004 | inactive: 0 | inactive: -0.003 | inactive: -0.02 | inactive: -0.004 | inactive: -0.012 | inactive: -0.029 | inactive: 0.048 | inactive: 0.012 | inactive: 0.022 | inactive: -0.023 | inactive: -0.007
SEC16A isoform 5 (UniProt O15027) | inactive: 0.03 | inactive: 0.019 | inactive: 0.021 | inactive: 0.038 | inactive: -0.028 | inactive: 0.006 | inactive: 0.008 | inactive: -0.037 | inactive: 0.013 | inactive: -0.01 | inactive: -0.005 | inactive: -0.09 | inactive: 0.011 | inactive: -0.014 | inactive: -0.002 | inactive: 0.011 | inactive: 0.01 | inactive: -0.001 | inactive: 0.013 | inactive: 0.014
S100PBP (UniProt Q96BU1) | inactive: -0.001 | inactive: -0.072 | inactive: 0.05 | inactive: 0.06 | inactive: 0.04 | inactive: -0.01 | inactive: 0.034 | inactive: 0.03 | inactive: 0.036 | inactive: -0.033 | inactive: -0.071 | inactive: -0.063 | inactive: -0.031 | inactive: 0.121 | inactive: 0.092 | inactive: 0.19 | inactive: -0.12 | inactive: -0.061 | inactive: 0.025 | inactive: 0.001
SEPTIN8 (UniProt Q92599) | inactive: 0.021 | inactive: 0.011 | inactive: -0.008 | inactive: -0.028 | inactive: 0.024 | inactive: -0.005 | inactive: 0.002 | inactive: 0.016 | inactive: 0.005 | inactive: -0.006 | inactive: 0.006 | inactive: 0.014 | inactive: -0.004 | inactive: 0.006 | inactive: -0.009 | inactive: -0.026 | inactive: 0.018 | inactive: -0.006 | inactive: 0.003 | inactive: 0.001
SEC63 (UniProt Q9UGP8) | inactive: 0.025 | inactive: -0.001 | inactive: -0.041 | inactive: 0.063 | inactive: 0.019 | inactive: -0.005 | inactive: -0.119 | inactive: 0.018 | inactive: -0.006 | inactive: -0.014 | inactive: -0.024 | inactive: 0.033 | inactive: 0.016 | inactive: 0.011 | inactive: 0.012 | inactive: 0.009 | inactive: -0.09 | inactive: 0.005 | inactive: 0.014 | inactive: 0.017
SEPTIN5 (UniProt G3XAH0) | inactive: -0.077 | inactive: -0.027 | inactive: 0.04 | inactive: -0.005 | inactive: -0.032 | inactive: 0.023 | inactive: -0.007 | inactive: 0.025 | inactive: -0.036 | inactive: -0.018 | inactive: -0.008 | inactive: 0.047 | inactive: -0.075 | inactive: 0.034 | inactive: -0.021 | inactive: -0.031 | inactive: 0.004 | inactive: -0.068 | inactive: 0.015 | inactive: -0.019
SAMSN1 (UniProt Q9NSI8) | inactive: -0.008 | inactive: -0.015 | inactive: -0.035 | inactive: 0.039 | inactive: 0.011 | inactive: -0.014 | inactive: -0.024 | inactive: 0.031 | inactive: -0.016 | inactive: 0.009 | inactive: -0.029 | inactive: 0.031 | inactive: 0.001 | inactive: -0.006 | inactive: -0.025 | inactive: 0.009 | inactive: -0.005 | inactive: 0.029 | inactive: -0.01 | inactive: 0.039
SEPHS2 (UniProt Q99611) | inactive: -0.008 | inactive: -0.004 | inactive: 0.015 | inactive: 0.023 | inactive: 0.02 | inactive: 0.014 | inactive: -0.036 | inactive: -0.003 | inactive: 0.008 | inactive: -0.038 | inactive: -0.031 | inactive: 0.02 | inactive: -0.024 | inactive: -0.008 | inactive: 0.026 | inactive: -0.019 | inactive: 0.049 | inactive: -0.014 | inactive: -0.01 | inactive: -0.006
SCCPDH (UniProt Q8NBX0) | inactive: -0.013 | inactive: -0.054 | inactive: 0.118 | inactive: 0.128 | inactive: 0.055 | inactive: -0.107 | inactive: -0.12 | inactive: 0.233 | inactive: -0.092 | inactive: 0.094 | inactive: -0.051 | inactive: 0.044 | inactive: 0.05 | inactive: 0.028 | inactive: 0.333 | inactive: -0.076 | inactive: 0.129 | inactive: -0.011 | inactive: 0.005 | inactive: -0.063
SDHB (UniProt P21912) | inactive: 0 | inactive: 0.003 | inactive: -0.026 | inactive: 0.07 | inactive: 0.009 | inactive: 0.002 | inactive: -0.031 | inactive: 0.023 | inactive: -0.015 | inactive: -0.013 | inactive: -0.031 | inactive: 0.004 | inactive: 0.006 | inactive: 0.028 | inactive: 0.02 | inactive: 0.009 | inactive: -0.009 | inactive: 0.014 | inactive: -0.005 | inactive: -0.016
SEC23A (UniProt Q15436) | inactive: -0.048 | inactive: 0.023 | inactive: 0.025 | inactive: -0.014 | inactive: -0.047 | inactive: 0.037 | inactive: -0.049 | inactive: 0.031 | inactive: 0 | inactive: 0.023 | inactive: -0.001 | inactive: 0.009 | inactive: 0.028 | inactive: 0.017 | inactive: 0.01 | inactive: 0.013 | inactive: 0.062 | inactive: 0.008 | inactive: -0.031 | inactive: -0.007
SART1 (UniProt O43290) | inactive: 0.009 | inactive: 0.009 | inactive: 0.006 | inactive: 0.047 | inactive: -0.004 | inactive: -0.026 | inactive: 0.001 | inactive: -0.038 | inactive: -0.004 | inactive: -0.004 | inactive: 0.004 | inactive: -0.001 | inactive: 0.017 | inactive: 0.029 | inactive: 0.033 | inactive: 0.032 | inactive: -0.022 | inactive: -0.003 | inactive: -0.026 | inactive: -0.047

Some of the entries so far, in CSV form.
Target,log2 fold change (vemurafenib),log2 fold change [1],log2 fold change (barasertib),log2 fold change [2],log2 fold change (volasertib),log2 fold change [3],log2 fold change [4],log2 fold change [5],log2 fold change (saracatinib),log2 fold change (sotrastaurin),log2 fold change (alvocidib),log2 fold change (Tubastatin A),log2 fold change [6],log2 fold change (defactinib),log2 fold change [7],log2 fold change (encorafenib),log2 fold change [8],log2 fold change (alisertib),log2 fold change [9],log2 fold change (gefitinib)
SEC62 (UniProt Q99442),inactive: -0.024,inactive: 0.039,inactive: 0.027,inactive: 0.017,inactive: 0.011,inactive: 0,active: 0.373,inactive: -0.12,inactive: -0.011,inactive: -0.04,inactive: 0.046,inactive: 0.07,inactive: 0.019,inactive: 0.02,inactive: 0.045,inactive: -0.012,inactive: -0.084,inactive: -0.003,inactive: -0.028,inactive: 0.004
SCIN (UniProt Q9Y6U3),inactive: -0.011,inactive: 0.018,inactive: 0.021,inactive: 0.02,inactive: -0.027,inactive: 0.026,inactive: -0.001,inactive: -0.019,inactive: -0.003,inactive: -0.013,inactive: 0.012,inactive: 0.032,inactive: -0.001,inactive: -0.003,inactive: 0.022,inactive: -0.01,inactive: 0.054,inactive: -0.022,inactive: 0.007,inactive: -0.002
